Assay results reported in the supplement of paper PMC8728848.
The other results are listed elsewhere or left out.

Key:
Experiment in all cases: glycan array binding signal (z-score within array); higher = stronger binding
Conditions in all cases: glycan notation: IUPAC condensed, linker removed
[1] = biological target: Neu5Ac(a2-3)Gal(b1-4)GlcNAc(b1-2)Man(a1-3)[Neu5Ac(a2-6)Gal(b1-4)GlcNAc(b1-2)Man(a1-6)]Man(b1-4)GlcNAc(b1-4)GlcNAc
In short: (§1)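 Glycan array data came from 3228 arrays in the Consortium for Functional Glycomics database, and only arrays with an available protein sequence were kept. Glycan names were put into IUPAC-condensed notation, and columns mapping to the same glycan were averaged. The binding signal is a within-array Z-score, averaged across arrays of one protein sequence run at different concentrations or buffers and across linkers. A negative Z-score can be read as non-binding.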

[2] = biological target: Neu5Ac(a2-3)Gal(b1-4)GlcNAc(b1-2)[Neu5Ac(a2-3)Gal(b1-4)GlcNAc(b1-4)]Man(a1-3)[GlcNAc(b1-4)][Neu5Ac(a2-3)Gal(b1-4)GlcNAc(b1-2)[Neu5Ac(a2-3)Gal(b1-4)GlcNAc(b1-6)]Man(a1-6)]Man(b1-4)GlcNAc(b1-4)GlcNAc
In short: as §1

[3] = biological target: Neu5Ac(a2-3)Gal(b1-4)GlcNAc(b1-2)[Neu5Ac(a2-3)Gal(b1-4)GlcNAc(b1-4)]Man(a1-3)[GlcNAc(b1-4)][Neu5Ac(a2-3)Gal(b1-4)GlcNAc(b1-4)Man(a1-6)]Man(b1-4)GlcNAc(b1-4)GlcNAc
In short: as §1

[4] = biological target: Neu5Ac(a2-3)Gal(b1-4)GlcNAc(b1-2)[Neu5Ac(a2-3)Gal(b1-4)GlcNAc(b1-6)]Man(a1-6)[Neu5Ac(a2-3)Gal(b1-4)GlcNAc(b1-2)Man(a1-3)][GlcNAc(b1-4)]Man(b1-4)GlcNAc(b1-4)GlcNAc
In short: as §1

[5] = biological target: Neu5Ac(a2-3)Gal(b1-4)GlcNAc(b1-3)Gal
In short: as §1

[6] = biological target: Neu5Ac(a2-3)Gal(b1-4)GlcNAc(b1-3)Gal(b1-3)GlcNAc
In short: as §1

[7] = biological target: Neu5Ac(a2-3)Gal(b1-4)GlcNAc(b1-3)Gal(b1-4)GlcNAc
In short: as §1

[8] = biological target: Neu5Ac(a2-3)Gal(b1-4)GlcNAc(b1-3)Gal(b1-4)GlcNAc(b1-2)Man(a1-3)[Neu5Ac(a2-3)Gal(b1-4)GlcNAc(b1-3)Gal(b1-4)GlcNAc(b1-2)Man(a1-6)]Man(b1-4)GlcNAc(b1-4)GlcNAc
In short: as §1

[9] = biological target: Neu5Ac(a2-3)Gal(b1-4)GlcNAc(b1-3)Gal(b1-4)GlcNAc(b1-3)Gal(b1-4)GlcNAc
In short: as §1

[10] = biological target: Neu5Ac(a2-3)Gal(b1-4)GlcNAc(b1-3)Gal(b1-4)GlcNAc(b1-3)Gal(b1-4)GlcNAc(b1-2)Man(a1-3)[Neu5Ac(a2-3)Gal(b1-4)GlcNAc(b1-3)Gal(b1-4)GlcNAc(b1-3)Gal(b1-4)GlcNAc(b1-2)Man(a1-6)]GalNAc
In short: as §1

[11] = biological target: Neu5Ac(a2-3)Gal(b1-4)GlcNAc(b1-3)Gal(b1-4)GlcNAc(b1-3)GalNAc
In short: as §1

[12] = biological target: Neu5Ac(a2-3)Gal(b1-4)GlcNAc(b1-3)Gal(b1-4)GlcNAc(b1-3)[Neu5Ac(a2-3)Gal(b1-4)GlcNAc(b1-3)Gal(b1-4)GlcNAc(b1-6)]GalNAc
In short: as §1

[13] = biological target: Neu5Ac(a2-3)Gal(b1-4)GlcNAc(b1-3)Gal(b1-4)GlcNAc(b1-6)[Gal(b1-3)]GalNAc
In short: as §1

[14] = biological target: Neu5Ac(a2-3)Gal(b1-4)GlcNAc(b1-3)Gal(b1-4)[Fuc(a1-3)]GlcNAc
In short: as §1

[15] = biological target: Neu5Ac(a2-3)Gal(b1-4)GlcNAc(b1-3)GalNAc
In short: as §1

[16] = biological target: Neu5Ac(a2-3)Gal(b1-4)GlcNAc(b1-3)[Neu5Ac(a2-3)Gal(b1-4)GlcNAc(b1-6)]GalNAc
In short: as §1

[17] = biological target: Neu5Ac(a2-3)Gal(b1-4)GlcNAc(b1-6)GalNAc
In short: as §1

[18] = biological target: Neu5Ac(a2-3)Gal(b1-4)GlcNAc(b1-6)[Gal(b1-3)]GalNAc
In short: as §1

[19] = biological target: Neu5Ac(a2-3)Gal(b1-4)GlcNAc(b1-6)[Neu5Ac(a2-3)Gal(b1-3)]GalNAc
In short: as §1

[20] = biological target: Neu5Ac(a2-3)Gal(b1-4)GlcNAc6S
In short: as §1

[21] = biological target: Neu5Ac(a2-3)Gal(b1-4)[Fuc(a1-3)]GlcNAc
In short: as §1

[22] = biological target: Neu5Ac(a2-3)Gal(b1-4)[Fuc(a1-3)]GlcNAc(b1-2)Man
In short: as §1

[23] = biological target: Neu5Ac(a2-3)Gal(b1-4)[Fuc(a1-3)]GlcNAc(b1-3)Gal
In short: as §1

[24] = biological target: Neu5Ac(a2-3)Gal(b1-4)[Fuc(a1-3)]GlcNAc(b1-3)Gal(b1-4)GlcNAc
In short: as §1

[25] = biological target: Neu5Ac(a2-3)Gal(b1-4)[Fuc(a1-3)]GlcNAc(b1-3)Gal(b1-4)[Fuc(a1-3)]GlcNAc(b1-3)Gal(b1-4)[Fuc(a1-3)]GlcNAc
In short: as §1

[26] = biological target: Neu5Ac(a2-3)Gal(b1-4)[Fuc(a1-3)]GlcNAc(b1-3)GalNAc
In short: as §1

[27] = biological target: Neu5Ac(a2-3)Gal(b1-4)[Fuc(a1-3)]GlcNAc(b1-6)[Gal(b1-3)]GalNAc
In short: as §1

[28] = biological target: Neu5Ac(a2-3)Gal(b1-4)[Fuc(a1-3)]GlcNAc(b1-6)[Neu5Ac(a2-3)Gal(b1-3)]GalNAc
In short: as §1

[29] = biological target: Neu5Ac(a2-3)Gal(b1-4)[Fuc(a1-3)]GlcNAc6S
In short: as §1

[30] = biological target: Neu5Ac(a2-3)Gal6S(b1-4)GlcNAc
In short: as §1

[31] = biological target: Neu5Ac(a2-3)Gal6S(b1-4)[Fuc(a1-3)]GlcNAc
In short: as §1

Neu5Ac(a2-3)GalNAc = biological target: Neu5Ac(a2-3)GalNAc
In short: as §1

[32] = biological target: Neu5Ac(a2-3)GalNAc(b1-4)GlcNAc
In short: as §1

[33] = biological target: Neu5Ac(a2-3)[GalNAc(b1-4)]Gal(b1-4)Glc
In short: as §1

[34] = biological target: Neu5Ac(a2-3)[GalNAc(b1-4)]Gal(b1-4)GlcNAc
In short: as §1

[35] = biological target: Neu5Ac(a2-3)[GalNAc(b1-4)]Gal(b1-4)GlcNAc(b1-3)GalNAc
In short: as §1

[36] = biological target: Neu5Ac(a2-3)[Neu5Ac(a2-6)]GalNAc
In short: as §1

Neu5Ac(a2-6)Gal = biological target: Neu5Ac(a2-6)Gal
In short: as §1

[37] = biological target: Neu5Ac(a2-6)Gal(b1-3)GlcNAc(b1-3)[Gal(b1-4)GlcNAc(b1-6)]Gal(b1-4)Glc
In short: as §1

Neu5Ac(a2-6)Gal(b1-4)Glc = biological target: Neu5Ac(a2-6)Gal(b1-4)Glc
In short: as §1

[38] = biological target: Neu5Ac(a2-6)Gal(b1-4)GlcNAc
In short: as §1

[39] = biological target: Neu5Ac(a2-6)Gal(b1-4)GlcNAc(b1-2)Man
In short: as §1

[40] = biological target: Neu5Ac(a2-6)Gal(b1-4)GlcNAc(b1-2)Man(a1-3)Man(b1-4)GlcNAc(b1-4)GlcNAc
In short: as §1

[41] = biological target: Neu5Ac(a2-6)Gal(b1-4)GlcNAc(b1-2)Man(a1-3)[Gal(b1-4)GlcNAc(b1-2)Man(a1-6)]Man(b1-4)GlcNAc(b1-4)GlcNAc
In short: as §1

[42] = biological target: Neu5Ac(a2-6)Gal(b1-4)GlcNAc(b1-2)Man(a1-3)[GlcNAc(b1-2)Man(a1-6)]Man(b1-4)GlcNAc(b1-4)GlcNAc
In short: as §1

B1: CBP21 (Serratia marcescens), O83009 (protein)
chain: MNKTSRTLLSLGLLSAAMFGVSQQANAHGYVESPASRAYQCKLQLNTQCGSVQYEPQSVEGLKGFPQAGPADGHIASADKSTFFELDQQTPTRWNKLNLKTGPNSFTWKLTARHSTTSWRYFITKPNWDASQPLTRASFDLTPFCQFNDGGAIPAAQVTHQCNIPADRSGSHVILAVWDIADTANAFYQAIDVNLSK
- glycan array binding signal (z-score) [1]: -1.35
- glycan array binding signal (z-score) [2]: -0.28
- glycan array binding signal (z-score) [3]: 0.246
- glycan array binding signal (z-score) [4]: -0.87
- glycan array binding signal (z-score) [5]: -0.019
- glycan array binding signal (z-score) [6]: -1.13
- glycan array binding signal (z-score) [7]: 0.432
- glycan array binding signal (z-score) [8]: -0.793
- glycan array binding signal (z-score) [9]: 1.59
- glycan array binding signal (z-score) [10]: 0.18
- glycan array binding signal (z-score) [11]: 0.287
- glycan array binding signal (z-score) [12]: 0.987
- glycan array binding signal (z-score) [13]: -0.397
- glycan array binding signal (z-score) [14]: 0.007
- glycan array binding signal (z-score) [15]: 0.048
- glycan array binding signal (z-score) [16]: -0.911
- glycan array binding signal (z-score) [17]: -1.32
- glycan array binding signal (z-score) [18]: 0.05
- glycan array binding signal (z-score) [19]: -2.09
- glycan array binding signal (z-score) [20]: 0.175
- glycan array binding signal (z-score) [21]: -1.19
- glycan array binding signal (z-score) [22]: -1.42
- glycan array binding signal (z-score) [23]: -1.01
- glycan array binding signal (z-score) [24]: 1.49
- glycan array binding signal (z-score) [25]: -1.37
- glycan array binding signal (z-score) [26]: 0.933
- glycan array binding signal (z-score) [27]: -0.477
- glycan array binding signal (z-score) [28]: -0.314
- glycan array binding signal (z-score) [29]: -0.462
- glycan array binding signal (z-score) [30]: -0.887
- glycan array binding signal (z-score) [31]: -0.454
- glycan array binding signal (z-score) (Neu5Ac(a2-3)GalNAc): -0.582
- glycan array binding signal (z-score) [32]: 0.542
- glycan array binding signal (z-score) [33]: -1.49
- glycan array binding signal (z-score) [34]: 0.682
- glycan array binding signal (z-score) [35]: -0.031
- glycan array binding signal (z-score) [36]: 0.644
- glycan array binding signal (z-score) (Neu5Ac(a2-6)Gal): 0.109
- glycan array binding signal (z-score) [37]: -0.178
- glycan array binding signal (z-score) (Neu5Ac(a2-6)Gal(b1-4)Glc): -0.329
- glycan array binding signal (z-score) [38]: -0.309
- glycan array binding signal (z-score) [39]: -0.09
- glycan array binding signal (z-score) [40]: -0.832
- glycan array binding signal (z-score) [41]: -0.251
- glycan array binding signal (z-score) [42]: -0.307
